# According to PubChem BioAssay AID272 (DTP/NCI, 2004):
# The list shows only some results of the screen, not a fair sample: it gathers tests that were run many times, whatever their T/C, doses with no T/C, and many T/C values between a quarter and a half above the control. Other doses and runs of a compound stand elsewhere. T/C is the treated group as % of the vehicle group. Some doses have a count of surviving animals in place of a T/C: the source holds a T/C of zero for them, seemingly a mark for toxic or unscored doses. Some doses without a T/C left all or most animals alive at the check, yet need not have been tolerated: the source hardly ever lists a survival T/C far under the control, and the zero likely stands for such cases as well. Survivors were counted at the toxicity check, usually on the fifth day, unless a day is given; later deaths do not show. Schedules are NCI's codes, read here as Q, the interval in days (D) or hours (H), X, the number of doses. Some entries hold several experiments; the values are given in rising order. Some schedule codes hold Z or #, which are not explained here. Where survival is the endpoint, this PubChem deposit counts one and a half times the control or more as active, and values a quarter to a half above the control carry no call in these data; other NCI protocols may use other cut-offs. Residues, ends and D or L forms follow the SMILES beside them. *: point of attachment. Trt = c1ccc(C(c2ccccc2)(c2ccccc2)*)cc1; Cbz = O=C(OCc1ccccc1)*; Bn = c1ccc(C*)cc1; βAla = NCCC(=O)O
# Tested on: Lewis lung carcinoma i.m., BDF1 mice, T/C %
# Experiment: NCI In Vivo Anticancer Drug Screen. Data for tumor model Lewis Lung Carcinoma (intramuscular) in B6D2F1 (BDF1) mice
# Procedure, shortened: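 Mice carrying transplantable tumours received test compound. Survival or tumour size was recorded and expressed as the treated-group value (T) divided by the vehicle-treated control-group value (C).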
smiles,measurement,setting,value
CN(C)/N=N/c1nc[nH]c1C(N)=O,survivor count,"T/C endpoint: mean tumor weight, dose: 400.0 mg/kg/injection, schedule: Q01DX011 (ip), vehicle: steroid suspending solution, higher T/C = larger tumour",1 of 8
same,T/C,"T/C endpoint: median survival time, dose: 23.0 mg/kg/injection, schedule: Q01DX010 (ip), vehicle: Klucel (hydroxypropylcellulose) (HPC), evaluated on day 12, higher T/C = longer survival",132 % of control
same,T/C,"T/C endpoint: median survival time, dose: 23.0 mg/kg/injection, schedule: Q01DX010 (ip), vehicle: Klucel (hydroxypropylcellulose) (HPC), evaluated on day 40, higher T/C = longer survival",131 % of control
same,survivor count,"T/C endpoint: median survival time, dose: 108.0 mg/kg/injection, schedule: Q01DX011 (ip), vehicle: Klucel (hydroxypropylcellulose) (HPC), higher T/C = longer survival",8 of 8
same,survivor count,"T/C endpoint: median survival time, dose: 180.0 mg/kg/injection, schedule: Q01DX010 (ip), vehicle: Klucel (hydroxypropylcellulose) (HPC), higher T/C = longer survival",8 of 8
same,survivor count,"T/C endpoint: median survival time, dose: 180.0 mg/kg/injection, schedule: Q01DX011 (ip), vehicle: Klucel (hydroxypropylcellulose) (HPC), higher T/C = longer survival",7 of 8
same,survivor count,"T/C endpoint: median survival time, dose: 200.0 mg/kg/injection, schedule: Q01DX009 (ip), vehicle: Klucel (hydroxypropylcellulose) (HPC), higher T/C = longer survival",10 of 10
same,survivor count,"T/C endpoint: median survival time, dose: 300.0 mg/kg/injection, schedule: Q01DX010 (ip), vehicle: Klucel (hydroxypropylcellulose) (HPC), higher T/C = longer survival",8 of 8
same,survivor count,"T/C endpoint: median survival time, dose: 300.0 mg/kg/injection, schedule: Q01DX011 (ip), vehicle: Klucel (hydroxypropylcellulose) (HPC), higher T/C = longer survival",5 of 8
same,survivor count,"T/C endpoint: median survival time, dose: 400.0 mg/kg/injection, schedule: Q01DX009 (ip), vehicle: Klucel (hydroxypropylcellulose) (HPC), higher T/C = longer survival",10 of 10
same,survivor count,"T/C endpoint: median survival time, dose: 400.0 mg/kg/injection, schedule: Q01DX011 (ip), vehicle: steroid suspending solution, higher T/C = longer survival",1 of 8
same,survivor count,"T/C endpoint: median survival time, dose: 500.0 mg/kg/injection, schedule: Q01DX010 (ip), vehicle: Klucel (hydroxypropylcellulose) (HPC), higher T/C = longer survival",8 of 8
same,survivor count,"T/C endpoint: median survival time, dose: 500.0 mg/kg/injection, schedule: Q01DX011 (ip), vehicle: Klucel (hydroxypropylcellulose) (HPC), higher T/C = longer survival",3 of 8
same,survivor count,"T/C endpoint: median survival time, dose: 800.0 mg/kg/injection, schedule: Q01DX009 (ip), vehicle: Klucel (hydroxypropylcellulose) (HPC), higher T/C = longer survival",0 of 10
COC(=O)C[C@](O)(CCCC(C)(C)O)C(=O)O[C@@H]1C(OC)=C[C@]23CCCN2CCc2cc4c(cc2[C@H]13)OCO4,survivor count,"T/C endpoint: mean tumor weight (est.), dose: 1.0 mg/kg/injection, schedule: Q01DX011 (ip), vehicle: saline, higher T/C = larger tumour",4 of 8
same,survivor count,"T/C endpoint: mean tumor weight (est.), dose: 2.0 mg/kg/injection, schedule: Q01DX011 (ip), vehicle: saline, higher T/C = larger tumour",1 of 8
same,T/C,"T/C endpoint: median survival time, dose: 0.5 mg/kg/injection, schedule: Q01DX011 (ip), vehicle: saline, higher T/C = longer survival",132 % of control
same,survivor count,"T/C endpoint: median survival time, dose: 1.0 mg/kg/injection, schedule: Q01DX011 (ip), vehicle: saline, higher T/C = longer survival",4 of 8
same,survivor count,"T/C endpoint: median survival time, dose: 2.0 mg/kg/injection, schedule: Q01DX011 (ip), vehicle: saline, higher T/C = longer survival",1 of 8
same,survivor count,"T/C endpoint: median survival time, dose: 4.0 mg/kg/injection, schedule: Q01DX011 (ip), vehicle: saline, higher T/C = longer survival",0 of 8
O=P1(NCCCl)OCCCN1CCCl (stereo not drawn),survivor count,"T/C endpoint: median survival time, dose: 65.0 mg/kg/injection, schedule: Q04DX Z (ip), vehicle: water, higher T/C = longer survival",0 of 8
same,survivor count,"T/C endpoint: median survival time, dose: 108.0 mg/kg/injection, schedule: Q01DX011 (ip), vehicle: water, higher T/C = longer survival",7 of 8
same,T/C,"T/C endpoint: median survival time, dose: 180.0 mg/kg/injection, schedule: Q01DX001 (ip), vehicle: water, higher T/C = longer survival",146 % of control
same,survivor count,"T/C endpoint: median survival time, dose: 180.0 mg/kg/injection, schedule: Q01DX011 (ip), vehicle: water, higher T/C = longer survival",3 of 8 and 7 of 8
same,survivor count,"T/C endpoint: median survival time, dose: 180.0 mg/kg/injection, schedule: Q04DX Z (ip), vehicle: water, higher T/C = longer survival",5 of 8
same,survivor count,"T/C endpoint: median survival time, dose: 500.0 mg/kg/injection, schedule: Q01DX001 (ip), vehicle: water, higher T/C = longer survival",3 of 8 and 5 of 8
same,survivor count,"T/C endpoint: median survival time, dose: 500.0 mg/kg/injection, schedule: Q04DX Z (ip), vehicle: water, higher T/C = longer survival",2 of 8
same,survivor count,"T/C endpoint: median survival time, dose: 500.0 mg/kg/injection, schedule: Q07DX Z (ip), vehicle: water, higher T/C = longer survival",5 of 8
same,survivor count,"T/C endpoint: median survival time, dose: 833.0 mg/kg/injection, schedule: Q01DX001 (ip), vehicle: water, higher T/C = longer survival",0 of 8
CNC(=S)N/N=C/CCC/C=N/NC(=S)NC,survivor count,"T/C endpoint: mean tumor weight (est.), dose: 150.0 mg/kg/injection, schedule: Q01DX011 (ip), vehicle: saline with Tween-80, higher T/C = larger tumour",4 of 8
same,survivor count,"T/C endpoint: median survival time, dose: 150.0 mg/kg/injection, schedule: Q01DX011 (ip), vehicle: saline with Tween-80, higher T/C = longer survival",4 of 8
Cc1c2ccncc2c(C)c2c1[nH]c1ccccc12,survivor count,"T/C endpoint: median survival time, dose: 12.5 mg/kg/injection, schedule: Q01DX011 (ip), vehicle: water, higher T/C = longer survival",7 of 8
CN(C)CCCNc1c2ccccc2nc2cccc([N+](=O)[O-])c12,survivor count,"T/C endpoint: median survival time, dose: 0.2 mg/kg/injection, schedule: Q02DX011 (ip), vehicle: saline, higher T/C = longer survival",7 of 7
same,survivor count,"T/C endpoint: median survival time, dose: 0.3 mg/kg/injection, schedule: Q02DX011 (ip), vehicle: saline, higher T/C = longer survival",7 of 7
same,survivor count,"T/C endpoint: median survival time, dose: 2.0 micrograms/kg/injection, schedule: Q01DX009 (ip), vehicle: saline, higher T/C = longer survival",10 of 10
same,survivor count,"T/C endpoint: median survival time, dose: 8.0 micrograms/kg/injection, schedule: Q01DX009 (ip), vehicle: saline, higher T/C = longer survival",10 of 10
same,survivor count,"T/C endpoint: median survival time, dose: 16.0 micrograms/kg/injection, schedule: Q01DX009 (ip), vehicle: saline, higher T/C = longer survival",10 of 10
same,survivor count,"T/C endpoint: median survival time, dose: 32.0 micrograms/kg/injection, schedule: Q01DX009 (ip), vehicle: saline, higher T/C = longer survival",10 of 10
CC(=O)NNC(=O)c1ccccn1,survivor count,"T/C endpoint: median survival time, dose: 25.0 mg/kg/injection, schedule: Q01DX011 (ip), vehicle: water, higher T/C = longer survival",10 of 10
same,survivor count,"T/C endpoint: median survival time, dose: 25.0 mg/kg/injection, schedule: Q01DX012 (ip), vehicle: water, higher T/C = longer survival",5 of 10
same,survivor count,"T/C endpoint: median survival time, dose: 32.0 mg/kg/injection, schedule: Q01DX Z (ip), vehicle: other, higher T/C = longer survival",8 of 8
same,survivor count,"T/C endpoint: median survival time, dose: 50.0 mg/kg/injection, schedule: Q01DX011 (ip), vehicle: water, higher T/C = longer survival",8 of 10
same,survivor count,"T/C endpoint: median survival time, dose: 50.0 mg/kg/injection, schedule: Q01DX012 (ip), vehicle: water, higher T/C = longer survival",2 of 10
same,survivor count,"T/C endpoint: median survival time, dose: 64.0 mg/kg/injection, schedule: Q01DX Z (ip), vehicle: other, higher T/C = longer survival",8 of 8
same,survivor count,"T/C endpoint: median survival time, dose: 100.0 mg/kg/injection, schedule: Q01DX011 (ip), vehicle: water, higher T/C = longer survival",10 of 10
same,survivor count,"T/C endpoint: median survival time, dose: 100.0 mg/kg/injection, schedule: Q01DX012 (ip), vehicle: water, higher T/C = longer survival",10 of 10
same,survivor count,"T/C endpoint: median survival time, dose: 128.0 mg/kg/injection, schedule: Q01DX Z (ip), vehicle: other, higher T/C = longer survival",4 of 8 and 7 of 8
same,survivor count,"T/C endpoint: median survival time, dose: 200.0 mg/kg/injection, schedule: Q01DX011 (ip), vehicle: water, higher T/C = longer survival",5 of 10
same,survivor count,"T/C endpoint: median survival time, dose: 200.0 mg/kg/injection, schedule: Q01DX012 (ip), vehicle: water, higher T/C = longer survival",1 of 10
same,survivor count,"T/C endpoint: median survival time, dose: 400.0 mg/kg/injection, schedule: Q01DX011 (ip), vehicle: water, higher T/C = longer survival",0 of 10
same,survivor count,"T/C endpoint: median survival time, dose: 400.0 mg/kg/injection, schedule: Q01DX012 (ip), vehicle: water, higher T/C = longer survival",0 of 10
N[C@H](C(=O)O)[C@@H]1CC(Cl)=NO1,survivor count,"T/C endpoint: median survival time, dose: 4.0 mg/kg/injection, schedule: Q01DX013 (ip), vehicle: saline, higher T/C = longer survival",8 of 8
same,survivor count,"T/C endpoint: median survival time, dose: 8.0 mg/kg/injection, schedule: Q01DX013 (ip), vehicle: saline, higher T/C = longer survival",8 of 8
same,survivor count,"T/C endpoint: median survival time, dose: 16.0 mg/kg/injection, schedule: Q01DX013 (ip), vehicle: saline, higher T/C = longer survival",7 of 8
same,survivor count,"T/C endpoint: median survival time, dose: 32.0 mg/kg/injection, schedule: Q01DX013 (ip), vehicle: saline, higher T/C = longer survival",4 of 8
COC(=O)C(CSC(c1ccccc1)(c1ccccc1)c1ccccc1)NC(=O)C(CSCc1ccccc1)NC(=O)CCNC(=O)OCc1ccccc1 (stereo not drawn) ({Cbz-βAla}-Cys(Bn)-Cys(Trt)-OMe; configuration not given here),T/C,"T/C endpoint: median survival time, dose: 8.0 mg/kg/injection, schedule: Q01DX009 (ip), vehicle: Klucel (hydroxypropylcellulose) (HPC), higher T/C = longer survival",142 % of control
same,T/C,"T/C endpoint: median survival time, dose: 16.0 mg/kg/injection, schedule: Q01DX009 (ip), vehicle: Klucel (hydroxypropylcellulose) (HPC), higher T/C = longer survival",132 % of control
CN(N=O)C(N)=O,survivor count,"T/C endpoint: median survival time, dose: 25.0 mg/kg/injection, schedule: Q01DX015 (ip), vehicle: saline, higher T/C = longer survival",8 of 8
same,survivor count,"T/C endpoint: median survival time, dose: 50.0 mg/kg/injection, schedule: Q01DX015 (ip), vehicle: saline, higher T/C = longer survival",8 of 8
same,survivor count,"T/C endpoint: median survival time, dose: 50.0 mg/kg/injection, schedule: Q07DX003 (ip), vehicle: saline, higher T/C = longer survival",8 of 8
same,survivor count,"T/C endpoint: median survival time, dose: 100.0 mg/kg/injection, schedule: Q07DX003 (ip), vehicle: saline, higher T/C = longer survival",8 of 8
same,survivor count,"T/C endpoint: median survival time, dose: 200.0 mg/kg/injection, schedule: Q07DX003 (ip), vehicle: saline, higher T/C = longer survival",8 of 8
CC(=O)O[C@]1(C(C)=O)CC[C@H]2[C@@H]3C[C@H](C)C4=CC(=O)CC[C@]4(C)[C@H]3CC[C@@]21C,survivor count,"T/C endpoint: median survival time, dose: 800.0 mg/kg/injection, schedule: Q01DX011 (ip), vehicle: Klucel (hydroxypropylcellulose) (HPC), higher T/C = longer survival",8 of 10 and 9 of 10
